In PMC12744750 (Plant Communications, 2025):
No constants are given. Whether binding was seen depends on the method and setting. For some of these results: In cells and extracts the contact can be indirect. Some results given as binding are weak or reduced against the parent protein; the word gives no strength. For some of these results: Tags and fused reporters may be left off the sequences shown.

Columns and labels:
[1] = target: T1, ETR1 with a C-terminal HA tag (ETR1:HA), pro35S::ETR1:HA (Arabidopsis) (UniProt P49333); experiment: co-IP; the PLS:GFP and ETR1:HA pair of the competition experiment, N. benthamiana leaf extract, with 0.5 μM CuSO4 and 50 μM MG-132
T1 sequence: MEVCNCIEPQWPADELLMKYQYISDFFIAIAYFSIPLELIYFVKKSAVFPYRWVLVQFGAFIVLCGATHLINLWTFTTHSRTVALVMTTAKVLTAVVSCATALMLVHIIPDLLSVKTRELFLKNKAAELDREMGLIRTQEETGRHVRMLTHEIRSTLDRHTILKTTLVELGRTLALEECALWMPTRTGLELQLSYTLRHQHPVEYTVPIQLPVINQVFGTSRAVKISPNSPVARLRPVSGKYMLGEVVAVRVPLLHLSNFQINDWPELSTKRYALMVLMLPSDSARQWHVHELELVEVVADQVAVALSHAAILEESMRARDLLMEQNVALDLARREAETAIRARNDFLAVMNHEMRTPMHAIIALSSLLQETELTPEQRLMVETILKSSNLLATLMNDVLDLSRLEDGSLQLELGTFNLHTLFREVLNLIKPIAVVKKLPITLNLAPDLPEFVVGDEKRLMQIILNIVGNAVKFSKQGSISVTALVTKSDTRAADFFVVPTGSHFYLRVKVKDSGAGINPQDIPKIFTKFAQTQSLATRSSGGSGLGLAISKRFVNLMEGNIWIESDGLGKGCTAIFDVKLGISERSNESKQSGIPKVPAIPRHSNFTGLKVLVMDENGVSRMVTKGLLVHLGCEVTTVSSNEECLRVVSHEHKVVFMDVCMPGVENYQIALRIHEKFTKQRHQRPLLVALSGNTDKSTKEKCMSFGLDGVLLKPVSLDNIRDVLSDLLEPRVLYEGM

[2] = target: T1, ETR1 with a C-terminal HA tag (ETR1:HA), pro35S::ETR1:HA (Arabidopsis); experiment: co-IP; anti-HA beads on protein extract of N. benthamiana leaves co-expressing ETR1:HA and PLS:GFP or GFP, 3 days after infiltration; blot with anti-GFP; with 0.5 μM CuSO4 or 2 mM EDTA added to the extract
[3] = target: T2, PLS linked to a C-terminal GFP (PLS:GFP), pro35S::PLS:GFP (Arabidopsis thaliana) (UniProt Q8LLV8); experiment: co-IP; anti-GFP beads on protein extract of N. benthamiana leaves co-expressing PLS:GFP and ETR1:HA; blot with anti-HA; with or without EDTA
T2 sequence: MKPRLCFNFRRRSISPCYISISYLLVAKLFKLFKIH

[4] = target: T3, ETR1^306−738, recombinant, purified and fluorescently labeled (Arabidopsis) (UniProt P49333); experiment: MST; fluorescently labeled ETR1 variant at 50 nM, synthetic PLS diluted serially from 94 μM; 50 mM Tris, 300 mM NaCl, pH 7.6 (or 50 mM HEPES, 150 mM NaCl), 0.015% (w/v) FosCholine 16; premium capillaries, 50% LED and 50% MST power; both purified
T3 sequence (chain, fluorescent label (dye and site not stated)): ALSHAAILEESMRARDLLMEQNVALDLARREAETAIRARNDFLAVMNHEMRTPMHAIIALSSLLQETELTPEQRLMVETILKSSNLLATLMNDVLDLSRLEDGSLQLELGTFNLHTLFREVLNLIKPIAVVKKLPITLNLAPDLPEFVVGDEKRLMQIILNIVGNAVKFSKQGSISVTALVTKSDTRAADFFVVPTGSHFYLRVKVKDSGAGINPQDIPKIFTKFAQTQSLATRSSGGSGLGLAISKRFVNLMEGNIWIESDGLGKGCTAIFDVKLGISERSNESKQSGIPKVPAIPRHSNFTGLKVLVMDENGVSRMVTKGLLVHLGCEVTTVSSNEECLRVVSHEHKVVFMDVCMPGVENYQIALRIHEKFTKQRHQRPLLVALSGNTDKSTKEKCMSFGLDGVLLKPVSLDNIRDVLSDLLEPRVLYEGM

MKPRLCFNFRRRSISPCYISISYLLVAKLFKLFKIH (peptide, UniProt Q8LLV8 1-36) [PLS linked to a C-terminal GFP (PLS:GFP), pro35S::PLS:GFP]
binding [1]: binds
binding [2]: binds

B1: ETR1 with a C-terminal HA tag (ETR1:HA), pro35S::ETR1:HA (receptor, Arabidopsis, UniProt P49333 1-738, looked up)
chain: T1 sequence
notes: the ETR1 cDNA in pEarlyGate301; also called ETHYLENE RESPONSE 1; source: N. benthamiana leaves, transient expression by Agrobacterium infiltration, in protein extract; not shown: HA, C-terminal, kept
binding [3]: binds

MKPRLCFNFRRRSISPCYISISYLLVAKLFKLFKIH (peptide, UniProt Q8LLV8 1-36) [synthetic full-length POLARIS (PLS) peptide, PLS(FL)]
binding [4]: no binding (tested: PLS diluted serially from 94 μM)
